Measurements reported in PubChem BioAssay AID602196 (INSERM, 2012).
Assay: 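Genes whose knock-down alters cisplatin killing of lung cancer cells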. System: human A549 lung cancer cells. Reagents: siRNA pair against human genes. Time to read-out: 48 h transfection before cisplatin; time from cisplatin to read-out not stated. Treatment: cisplatin at a dose killing half of control-siRNA cells; exact dose and duration not given. Read-out: 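Cisplatin cell death as a shift from the 50% death seen with control siRNA; siRNAs toxic or growth-blocking alone scored 0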. Scale: two-siRNA summed score (-2 to +2): higher = both siRNAs protect from cisplatin killing; -2 means both sensitise; mean protection from cisplatin (shift in death): higher = protection from cisplatin killing. Rule for the call: 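siRNAs harmful alone (LDH or WST-1) get 0; others get +1 for less and -1 for more cisplatin killing; genes are active when the two siRNAs give the same sign, summing to ±2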. Calls: active = both siRNAs shift cisplatin killing the same way; inactive = no consistent shift, or siRNA harmful alone.
This is one part, drawn at random, of about 23,000 reagents tested. 455 of all reagents (2%) were called active. 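Active includes both protection and sensitisation; some change values fall well beyond the stated -50 to +50 range.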 The numbers tell different reagents against one gene apart. Not all columns of the deposit are shown. No sequences are given here. Not stated in the record: the amount of reagent.

gene knocked down | reagent no. | two-siRNA summed score (-2 to +2) | mean protection from cisplatin (shift in death) (%) | Outcome
BUB1B (GeneID 701) | 1 | 0 | -14.1 | inactive
SKA2 (GeneID 348235) | 1 | 1 | 12.3 | inactive
DENND10P1 (GeneID 55855) | 1 | 0 | 5.4 | inactive
AGPS (GeneID 8540) | 1 | -1 | -8.3 | inactive
ANKRD20A19P (GeneID 400110) | 1 | -1 | 11.4 | inactive
EPCIP-AS1 (GeneID 54067) | 1 | 0 | 16 | inactive
LOC440155 | 1 | 2 | 17.9 | active
TDO2 (GeneID 6999) | 1 | -1 | -10.3 | inactive
MIIP (GeneID 60672) | 1 | 0 | -4.6 | inactive
APLF (GeneID 200558) | 1 | 0 | -5.5 | inactive
LINC00908 (GeneID 284276) | 1 | 0 | 4.8 | inactive
LOC441385 | 1 | 0 | 9.4 | inactive
TPPP3 (GeneID 51673) | 1 | 0 | 4.4 | inactive
LOC387654 | 1 | 1 | 14.4 | inactive
LOC284184 | 1 | 1 | 14.8 | inactive
TUBB6 (GeneID 84617) | 1 | 0 | 23.8 | inactive
UGT1A3 (GeneID 54659) | 1 | 0 | 12.3 | inactive
RASGEF1A (GeneID 221002) | 1 | 0 | 8.6 | inactive

Reagents above with an active call (1):
gene knocked down | reagent no. | two-siRNA summed score (-2 to +2) | mean protection from cisplatin (shift in death) (%) | Outcome
LOC440155 | 1 | 2 | 17.9 | active

The results go on.
gene knocked down | reagent no. | two-siRNA summed score (-2 to +2) | mean protection from cisplatin (shift in death) (%) | Outcome
PABPC3 (GeneID 5042) | 1 | -1 | -6 | inactive
LOC390812 | 1 | 0 | -3.6 | inactive
CBLC (GeneID 23624) | 1 | -1 | -11.8 | inactive
BLMH (GeneID 642) | 1 | 0 | -7.1 | inactive
TEP1 (GeneID 7011) | 1 | 0 | 5.2 | inactive
LOC389803 | 1 | 0 | 17.1 | inactive
PRKACG (GeneID 5568) | 1 | 1 | 10.9 | inactive
GNB2 (GeneID 2783) | 1 | 0 | -0.1 | inactive
RAE1 (GeneID 8480) | 1 | 0 | -6.6 | inactive
PPP1R11 (GeneID 6992) | 1 | 0 | 4.9 | inactive
ABCD1 (GeneID 215) | 1 | 1 | 14.8 | inactive
ACTRT1 (GeneID 139741) | 1 | 0 | -10.4 | inactive
MAPKAPK5-AS1 (GeneID 51275) | 1 | 0 | -17.8 | inactive
LOC116166 | 1 | 0 | 16.9 | inactive
NWD2 (GeneID 57495) | 1 | 0 | 5.4 | inactive
REG1B (GeneID 5968) | 1 | 0 | 4.8 | inactive
REG1B (GeneID 5968) | 2 | 0 | 9.7 | inactive
OR10K1 (GeneID 391109) | 1 | 0 | 11.8 | inactive
ALG1L6P (GeneID 339879) | 1 | 1 | 10 | inactive
ZBED10P (GeneID 113763) | 1 | 0 | 2.2 | inactive
ZNF76 (GeneID 7629) | 1 | 1 | 13.4 | inactive
